# Experimental data as given in PMC7862700.
# The list shows a part of the results, in another mix than the full data. At the low end of the ranking the order means little.
# Tests used:
# Test in all cases: DAPPL (digital affinity profiling via proximity ligation, sequencing)
# Conditions in all cases: 10 mM Tris-HCl pH 7.5, 50 mM NaCl, 1 mM DTT, 4% glycerol, room temperature, 30 min; GST-TFs on glutathione beads, 16-mer random dsDNA library, 0.1% …; high values mean tight binding; double strand, one strand shown; scale: fold enrichment (6-mer frequency, TF over GST control)
# ELK1 = molecular target: T1, ELK1 (UniProt P19419)
# T1 sequence: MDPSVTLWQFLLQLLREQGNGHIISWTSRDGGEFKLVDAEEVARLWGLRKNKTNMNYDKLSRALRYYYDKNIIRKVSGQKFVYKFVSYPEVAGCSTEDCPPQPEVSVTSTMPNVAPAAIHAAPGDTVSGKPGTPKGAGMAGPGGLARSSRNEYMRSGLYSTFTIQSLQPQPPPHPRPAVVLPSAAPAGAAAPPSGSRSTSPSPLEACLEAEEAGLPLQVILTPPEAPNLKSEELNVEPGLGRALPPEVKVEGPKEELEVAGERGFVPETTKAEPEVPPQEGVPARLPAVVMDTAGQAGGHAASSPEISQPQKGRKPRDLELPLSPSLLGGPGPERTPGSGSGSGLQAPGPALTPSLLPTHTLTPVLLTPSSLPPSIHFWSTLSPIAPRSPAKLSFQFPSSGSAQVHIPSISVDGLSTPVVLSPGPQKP
# ELK3 = molecular target: T2, ELK3 (UniProt P41970)
# T2 sequence: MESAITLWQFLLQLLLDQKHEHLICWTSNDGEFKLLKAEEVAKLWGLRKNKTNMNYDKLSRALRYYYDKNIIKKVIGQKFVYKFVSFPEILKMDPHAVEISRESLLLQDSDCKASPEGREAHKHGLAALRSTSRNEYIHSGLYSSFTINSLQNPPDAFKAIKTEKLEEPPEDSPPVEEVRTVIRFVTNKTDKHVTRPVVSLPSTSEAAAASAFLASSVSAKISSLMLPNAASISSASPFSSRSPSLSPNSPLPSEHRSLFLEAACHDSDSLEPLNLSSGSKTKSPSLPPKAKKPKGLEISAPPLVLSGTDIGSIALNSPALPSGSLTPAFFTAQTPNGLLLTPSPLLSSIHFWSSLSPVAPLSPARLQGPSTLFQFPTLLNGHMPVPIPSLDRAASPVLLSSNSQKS
# SPIC = molecular target: T3, SPIC (UniProt Q8N5J4)
# T3 sequence: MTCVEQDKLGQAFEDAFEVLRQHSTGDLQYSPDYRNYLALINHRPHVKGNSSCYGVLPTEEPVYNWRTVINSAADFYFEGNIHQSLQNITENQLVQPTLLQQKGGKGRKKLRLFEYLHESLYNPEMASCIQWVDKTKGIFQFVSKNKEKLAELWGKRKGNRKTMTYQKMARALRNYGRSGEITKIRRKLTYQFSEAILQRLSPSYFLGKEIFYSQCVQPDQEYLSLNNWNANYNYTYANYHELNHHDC
# ETS2 = molecular target: T4, ETS2 (UniProt P15036)
# T4 sequence: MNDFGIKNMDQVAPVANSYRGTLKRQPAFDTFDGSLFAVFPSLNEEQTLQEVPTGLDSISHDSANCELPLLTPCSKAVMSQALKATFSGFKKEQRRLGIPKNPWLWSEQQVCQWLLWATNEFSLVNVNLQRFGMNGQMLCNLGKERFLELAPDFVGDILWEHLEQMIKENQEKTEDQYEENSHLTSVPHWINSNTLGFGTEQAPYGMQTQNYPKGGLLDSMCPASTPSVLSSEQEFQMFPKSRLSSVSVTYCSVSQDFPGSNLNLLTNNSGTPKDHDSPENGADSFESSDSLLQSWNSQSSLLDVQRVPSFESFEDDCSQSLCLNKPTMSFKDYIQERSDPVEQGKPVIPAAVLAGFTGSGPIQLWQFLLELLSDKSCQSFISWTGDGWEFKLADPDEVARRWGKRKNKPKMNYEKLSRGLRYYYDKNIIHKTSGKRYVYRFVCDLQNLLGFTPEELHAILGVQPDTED
# ETV3 = molecular target: T5, ETV3 (UniProt P41162-2)
# T5 sequence: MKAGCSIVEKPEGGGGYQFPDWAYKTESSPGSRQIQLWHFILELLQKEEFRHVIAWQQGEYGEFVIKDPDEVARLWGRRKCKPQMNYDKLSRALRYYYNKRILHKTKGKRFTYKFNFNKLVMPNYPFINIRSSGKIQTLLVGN
Sequence,binding signal (ELK1),binding signal (ELK3),binding signal (SPIC),binding signal (ETS2),binding signal (ETV3)
TAGACC,0.852,0.803,0.793,0.814,0.801
TAGGGA,0.866,0.766,0.923,0.839,0.859
GGAAAG,0.894,,0.9,0.925,
CCGCGA,0.756,0.703,0.62,0.723,0.746
GCTCGG,0.77,0.736,0.817,0.708,0.782
ACGGGG,0.689,0.669,0.693,0.666,0.667
AAGTCG,0.531,0.525,0.558,0.49,0.463
GCGTGC,0.849,0.649,0.883,0.768,0.822
GCGAGG,0.602,0.606,0.637,0.616,0.578
GACTCA,0.994,,0.915,0.956,0.938
GGAGCG,0.396,0.401,0.37,0.366,0.38
CCTGTC,0.863,0.962,0.888,0.913,0.9
AGGGGT,0.733,0.954,0.824,0.813,0.796
GTAGGA,0.565,0.542,0.572,0.633,0.642
GACGCC,0.82,0.857,0.876,0.801,0.768
GTAAGG,0.721,0.862,0.786,0.776,0.799
TCAGCG,0.863,0.764,0.854,0.819,0.826
AGTCCG,0.554,0.569,0.581,0.568,0.648
GAGCGG,0.53,0.509,0.509,0.5,0.511
TGAGAA,0.734,0.733,0.673,0.794,0.658
CGTGCT,0.885,0.78,0.942,0.901,0.835
AAGAGC,0.869,0.877,0.947,0.835,0.884
GTAGTG,0.829,0.817,0.763,0.828,0.872
CCGAGA,0.596,0.592,0.539,0.578,0.642
ACGTGA,0.283,0.283,0.229,0.289,0.252

Sequence,binding signal (ELK1),binding signal (ELK3),binding signal (SPIC),binding signal (ETS2),binding signal (ETV3)
GGGCCC,0.801,0.711,0.807,0.824,0.822
TGAGAG,0.551,0.62,0.601,0.564,0.607
GAGGTC,0.595,0.554,0.603,0.613,0.635
GGTCGA,0.786,0.733,0.775,0.774,0.776
GTCTGC,0.999,0.837,0.793,0.944,0.813
ACAACG,0.887,0.915,0.966,0.926,0.92
GCTTGA,0.909,0.799,0.922,0.886,0.857
CGCCGT,1,0.826,0.914,0.863,0.974
CAGTTA,0.781,0.845,0.627,0.757,0.771
ACAGAG,0.712,0.648,0.739,0.709,0.708
TGACAG,0.943,0.934,0.809,0.894,0.915
CGCATT,0.797,0.765,0.754,0.784,0.801
TGAGTA,0.467,0.444,0.428,0.426,0.432
GTCGGC,0.41,0.384,0.425,0.376,0.392
ACAGGT,0.828,0.729,0.796,0.696,0.793
AGTCGG,0.146,0.157,0.181,0.144,0.149
GCGAGA,0.508,0.505,0.526,0.533,0.475
GCCACG,0.872,1.03,0.958,0.953,0.919
GGGATC,0.602,0.64,0.672,0.663,0.625
AGGTCG,0.551,0.47,0.451,0.523,0.539
GGTTGC,0.956,0.969,0.982,0.892,0.939
CACAGT,0.688,0.714,0.716,0.761,0.705
GACGCA,0.583,0.473,0.638,0.583,0.547
ACCAGG,0.777,0.73,0.758,0.758,0.785
AGCGTA,0.931,0.897,0.814,0.884,0.884

# Look-ups from the entries so far:
# Value of AGTCGG under binding signal (ELK1): 0.146
# Value of CACAGT under binding signal (ELK1): 0.688

# (cont.)

Sequence,binding signal (ELK1),binding signal (ELK3),binding signal (SPIC),binding signal (ETS2),binding signal (ETV3)
CATCGG,0.663,0.662,0.675,0.653,0.657
GAGACG,0.315,0.342,0.362,0.336,0.316
TGGGTC,0.705,0.64,0.652,0.658,0.615
GAGTCT,0.403,0.427,0.408,0.4,0.427
TAAGTG,0.721,0.853,0.942,0.766,0.789
GACCCG,0.835,0.827,0.712,0.862,0.908
GGTGTG,0.695,0.723,0.826,0.7,0.744
CGTGCG,0.584,0.541,0.529,0.614,0.714
GCCGTT,0.8,0.777,0.77,0.754,0.805
GTTAGA,0.765,0.736,0.77,0.739,0.747
TGAGAT,0.692,0.648,0.658,0.699,0.668
CGCATG,0.641,0.59,0.664,0.665,0.66
GAACCG,0.747,0.692,0.703,0.764,0.743
GTAGAG,0.586,0.554,0.67,0.571,0.577
GGACCG,0.87,0.748,0.701,0.766,0.816
ACGGTC,0.764,0.762,0.745,0.792,0.679
GCGGTC,0.564,0.67,0.596,0.64,0.643
GAAGGA,0.709,0.708,0.748,0.736,0.725
AGCCAT,0.847,0.899,0.859,0.9,0.852
TATCGG,0.807,0.874,0.906,0.844,0.86
CGAGGC,0.65,0.573,0.622,0.712,0.668
AGTCAG,0.51,0.512,0.504,0.514,0.499
AGTCCA,0.664,0.712,0.719,0.661,0.663
GTAGGG,0.731,0.624,0.782,0.695,0.718
ACAGTA,0.894,0.811,0.929,0.905,0.809

# Quoted from the entries so far for reference:
Sequence,binding signal (ELK1),binding signal (ELK3),binding signal (SPIC),binding signal (ETS2),binding signal (ETV3)
GGTTGC,0.956,0.969,0.982,0.892,0.939
CACAGT,0.688,0.714,0.716,0.761,0.705
GACGCA,0.583,0.473,0.638,0.583,0.547

# Later entries

Sequence,binding signal (ELK1),binding signal (ELK3),binding signal (SPIC),binding signal (ETS2),binding signal (ETV3)
GGACGC,0.375,0.373,0.426,0.397,0.382
GGCCGA,0.738,0.821,0.844,0.661,0.773
GGTCAA,0.898,0.91,0.812,0.949,0.948
GGTTAG,0.768,0.763,0.755,0.798,0.748
CCGTGG,0.42,0.399,0.394,0.421,0.445
CAGAGC,0.829,0.714,0.898,0.802,0.882
CACAGA,0.848,0.772,0.856,0.863,0.839
CGGAGT,0.311,0.327,0.348,0.304,0.331
AGACCC,0.745,0.618,0.637,0.736,0.659
GTCAAC,0.917,0.943,0.859,0.928,0.942
GGCCGC,0.839,0.766,0.762,0.817,0.818
GGCAAG,0.627,0.855,0.687,0.666,0.709
CAGGTC,0.748,0.671,0.592,0.682,0.687
CGTGCA,0.707,0.802,0.709,0.688,0.67
GAGGAT,0.549,0.629,0.497,0.595,0.62
ACGGGC,0.819,0.843,0.731,0.794,0.803
AGCCGA,0.83,0.84,0.794,0.773,0.88
CGCGTG,0.731,0.617,0.748,0.671,0.676
AGTCAA,0.609,0.652,0.562,0.595,0.634
AAGAGG,0.842,0.911,0.932,0.89,0.878
CATGTG,0.805,0.798,0.804,0.836,0.798
GGTAGA,0.676,0.593,0.721,0.69,0.665
GCCATA,0.802,0.967,0.873,0.841,0.889
GAGATA,0.645,0.627,0.651,0.634,0.673
